The other results are listed elsewhere or left out.
The sequences below were run against T1, OsSMF1 (Oryza sativa, UniProt Q6ZLB0 1-436) (assay: protein-binding microarray (RPBM); PBS, 2% BSA, 51.3 ng/ul salmon testes DNA, 50 uM zinc acetate, 200 nM TF, 25 C, 1 h; high values mean tight binding). Conditions: protein: recombinant; tags: N-terminal polyhistidine and DsRed monomer fusion (pET32a); chain copies: 2; label: CyDye5-dUTP incorporated in the synthesized complementary strand; 3' TTTTT single-stranded linker to array surface; dsDNA, one strand shown.
T1 sequence: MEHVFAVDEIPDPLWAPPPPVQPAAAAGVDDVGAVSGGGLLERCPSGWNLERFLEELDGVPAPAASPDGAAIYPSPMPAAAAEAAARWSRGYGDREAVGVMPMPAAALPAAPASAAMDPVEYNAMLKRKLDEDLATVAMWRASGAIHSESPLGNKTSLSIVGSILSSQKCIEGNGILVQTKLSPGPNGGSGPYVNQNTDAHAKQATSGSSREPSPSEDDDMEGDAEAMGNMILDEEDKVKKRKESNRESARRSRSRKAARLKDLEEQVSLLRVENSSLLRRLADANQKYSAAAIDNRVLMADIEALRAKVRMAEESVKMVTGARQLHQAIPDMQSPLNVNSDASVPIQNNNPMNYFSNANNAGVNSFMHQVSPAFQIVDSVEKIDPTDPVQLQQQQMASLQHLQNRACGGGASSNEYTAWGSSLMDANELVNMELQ
How it was run: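 A custom Agilent array was converted to double-stranded form by primer extension with Cy5-dUTP and blocked with 2% BSA. Protein at 200 nM in PBS with 2% BSA, salmon testes DNA and 50 µM zinc acetate was applied for 1 h at 25 °C, followed by washing. The proteins were polyhistidine–DsRed N-terminal fusions of transcription factors, expressed in E. coli BL21-CodonPlus and Ni–NTA-purified. The binding signal is per-feature fluorescence intensity (arbitrary units) from an Axon 4000B scanner.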

Row | Sequence | binding signal
1 | ATGCCACGTCATCAAGCCAGCCTCTCCTGTCCTCTCCTTTCGGAGTCACCTAGTGCAG | 26400 fluorescence intensity (a.u.)
2 | GACTAACAAAATCGTTGAAACTTGCGAAGTTTCTTTTGATCGGAGTCACCTAGTGCAG | 64700 fluorescence intensity (a.u.)
3 | AATCAATACAAAGTCTGAAAGCCATTATGGTGGCAGTAATCGGAGTCACCTAGTGCAG | 61300 fluorescence intensity (a.u.)
4 | GTTGCATGGTCCTGTTTTGAATTATTCCACGTATGATAAGCGGAGTCACCTAGTGCAG | 7720 fluorescence intensity (a.u.)
5 | TACGTAGGTGCCACGTCGGTCAAACCTGGGCTCAATAGTTCGGAGTCACCTAGTGCAG | 13900 fluorescence intensity (a.u.)
6 | GTGATCTTTCCACATACAGAGAGAGAGAGAGCTTGGGATTCGGAGTCACCTAGTGCAG | 40900 fluorescence intensity (a.u.)
7 | ATGAGAGATAAGTAGATGACACATTCACAGTTGCTATAGTCGGAGTCACCTAGTGCAG | 4040 fluorescence intensity (a.u.)
8 | TTTGTAATAGCATTGGATTCCTGGTTGCATGCGCTGGCTGCGGAGTCACCTAGTGCAG | 3630 fluorescence intensity (a.u.)
9 | AGGCTATCCTTAGGCTGTATTTAGTTCCACGTCAAAATTGCGGAGTCACCTAGTGCAG | 3190 fluorescence intensity (a.u.)
10 | AGGCGGTTTTGGCTGATGTGGCGTCTACGTGGCTTGTTTGCGGAGTCACCTAGTGCAG | 25300 fluorescence intensity (a.u.)
11 | GGCGCATGTTTAATCGACAGCTCGGCACGAGCAACAAGATCGGAGTCACCTAGTGCAG | 3670 fluorescence intensity (a.u.)
12 | CTCCCGCCGTGGCACGCGCGACGTGCCGCGTGCGCACAGGCGGAGTCACCTAGTGCAG | 46800 fluorescence intensity (a.u.)
13 | CGGTGGCAGCCCGGCGGCGTGGAGCGCGCTGCTTAGCGCGCGGAGTCACCTAGTGCAG | 53600 fluorescence intensity (a.u.)
14 | CTTCAACTCAAATGTCATCCGATGTCTGTTTCGTACCCGGCGGAGTCACCTAGTGCAG | 3850 fluorescence intensity (a.u.)
15 | TGACATTCAGCTTTGAATGAAATATCAGTCATGGAGGGAGCGGAGTCACCTAGTGCAG | 36900 fluorescence intensity (a.u.)
16 | GAAGTCCAAGCGCCTGGAACTTGTGTGTCAGTGTGTGAATCGGAGTCACCTAGTGCAG | 4010 fluorescence intensity (a.u.)
17 | TAATACATGGTCCCACATGTCATACACATATTGTGTCTTGCGGAGTCACCTAGTGCAG | 3280 fluorescence intensity (a.u.)
18 | AAGAAAAGCATACACCAACGGCTGGCTCTATACTCTGCCACGGAGTCACCTAGTGCAG | 3210 fluorescence intensity (a.u.)
19 | GCCTGCAGTTGCTCGATCTACGCATGTACCCAAGCTCCGCCGGAGTCACCTAGTGCAG | 3330 fluorescence intensity (a.u.)
20 | AGAGAATTATGGAGAGGGGAGGGGAGGGGCAGCAAAAGAGCGGAGTCACCTAGTGCAG | 4210 fluorescence intensity (a.u.)
21 | GCCCGCGCTTCATCCGGTAACCACCGTCACCAACCGTGCGCGGAGTCACCTAGTGCAG | 5640 fluorescence intensity (a.u.)

Records 8 to 9, reprinted for reference:
Row | Sequence | binding signal
8 | TTTGTAATAGCATTGGATTCCTGGTTGCATGCGCTGGCTGCGGAGTCACCTAGTGCAG | 3630 fluorescence intensity (a.u.)
9 | AGGCTATCCTTAGGCTGTATTTAGTTCCACGTCAAAATTGCGGAGTCACCTAGTGCAG | 3190 fluorescence intensity (a.u.)

(next part)

Row | Sequence | binding signal
22 | AGATCAAACCTGCCACGTGAGCACCATGTCAATGCCACATCGGAGTCACCTAGTGCAG | 18200 fluorescence intensity (a.u.)
23 | CGTCGTGGTGGTGAGGGGTGACGCGAGTCACGCAACTCGCCGGAGTCACCTAGTGCAG | 6180 fluorescence intensity (a.u.)
24 | GGAGATTGTGTCCTTATCTATAACGACAAGTATTATCAATCGGAGTCACCTAGTGCAG | 32400 fluorescence intensity (a.u.)
25 | CCCTCCTCTTTCCACTTGTCACCGCCGTTCGCCTTCCCAACGGAGTCACCTAGTGCAG | 3440 fluorescence intensity (a.u.)
26 | TAGAACTGACTCCTATAGCAAGCGACGGAGAAGCTCGACGCGGAGTCACCTAGTGCAG | 3780 fluorescence intensity (a.u.)
27 | ACATATTCACAGGGGTGTGAGTGTGATTGTGATGTTGCATCGGAGTCACCTAGTGCAG | 3550 fluorescence intensity (a.u.)
28 | CGATACTGCGATGCATCGATATCGTTCGTCAGCTCAAGTACGGAGTCACCTAGTGCAG | 3980 fluorescence intensity (a.u.)
29 | CCTCCTATATAATCATCAAAAGCTTAGCTTAGCAGTAGGCCGGAGTCACCTAGTGCAG | 30000 fluorescence intensity (a.u.)
30 | GGCGGCGGCGGCGGCGCGGCGGCGTTGACGTCGACCGGCGCGGAGTCACCTAGTGCAG | 3530 fluorescence intensity (a.u.)
31 | ATATTTTGCTTCCAATGCCACATTACCACCACGTAGGACGCGGAGTCACCTAGTGCAG | 8970 fluorescence intensity (a.u.)
32 | GCTGGTCACATCACAAACACGTACACTCACACCGTTGCCTCGGAGTCACCTAGTGCAG | 4570 fluorescence intensity (a.u.)
33 | ATTTACAATGTACCATTTCAACACGTGTGAAGCCATAAGACGGAGTCACCTAGTGCAG | 4890 fluorescence intensity (a.u.)
34 | CGTCGCACTGGCACGGTGGAGGACTACGTCAACAGTTTCCCGGAGTCACCTAGTGCAG | 4570 fluorescence intensity (a.u.)
35 | CAATGCAACTACTAACAACATGACAAGGCCTCCGGAACCGCGGAGTCACCTAGTGCAG | 4000 fluorescence intensity (a.u.)
36 | GTCTCAAACATAATCACCCATACTCGCAGGTAGTACATTCCGGAGTCACCTAGTGCAG | 3300 fluorescence intensity (a.u.)
37 | TTCAGTGGTGTGACGCGCCGGTGCGCCACACGTCCACCCCCGGAGTCACCTAGTGCAG | 4780 fluorescence intensity (a.u.)
38 | CTGCGCGCCATCGAGCGCTACCGCGTGACGCTGCTGCCCGCGGAGTCACCTAGTGCAG | 5150 fluorescence intensity (a.u.)
39 | GGTACAAAGGTGAATTATACTTCCTGGCAAGTGGTGGAATCGGAGTCACCTAGTGCAG | 3640 fluorescence intensity (a.u.)
40 | CCCACCGTAATACGTTCGCTATTTTGTCACGGATTCGGCGCGGAGTCACCTAGTGCAG | 3760 fluorescence intensity (a.u.)
41 | CTCTGCTTTGCGTGGGCACTGTTTAACCATTTTGTCATGTCGGAGTCACCTAGTGCAG | 3950 fluorescence intensity (a.u.)
42 | ATGGTCGTCGCTTTCGAGCCACGCTGGAACGTGCCGTGCGCGGAGTCACCTAGTGCAG | 3600 fluorescence intensity (a.u.)

— article PMC7819943, “Rice protein-binding microarrays: a tool to detect cis-acting elements near promoter regions in rice”
